How the values were obtained:
[1] = general procedure: Boc solid-phase peptide synthesis; Boc-Leu PAM polystyrene resin; dicyclohexylcarbodiimide/N-hydroxybenzotriazole; conditions: whole synthesis, by HPLC (UV absorption at 215 nm)
[2] = general procedure: Boc solid-phase peptide synthesis; Boc-Gln PAM resin; dicyclohexylcarbodiimide/N-hydroxybenzotriazole; conditions: whole synthesis

Substance	crude yield [1]	final purity (method not given) [2]
[D-Phe^45,Arg^47,ψ(COCH2)(CH2)3CO^47-(NHCH2CH=CHCH2CO), Pro^58, Leu^61]hirudin^45-61	greater than 60%	–
[D-Phe^45,Arg^47,ψ(COCH2)CH2CH2CO^47]hirudin^45-65	–	98% purity or higher

Source: patent EP0536177B1 (MAJESTY (HER) IN RIGHT OF CANADA as represented by THE …, priority 1990, dated 1991)
